Results reported in patent US20210121406A1.
Results are given in words; binding and its absence hold for the method and conditions named. Some results given as binding are weak or reduced against the parent protein; the word gives no strength.

Chains of the proteins cited; added tags and fusions are not shown. Lines headed by an entry give the natural chain unless they say otherwise; changes in a name come on top. A line that says so, or that is headed by a name, gives the form on record, which may keep a tag or linker.
cyno TSLP (A0A7N9CAT7, form named): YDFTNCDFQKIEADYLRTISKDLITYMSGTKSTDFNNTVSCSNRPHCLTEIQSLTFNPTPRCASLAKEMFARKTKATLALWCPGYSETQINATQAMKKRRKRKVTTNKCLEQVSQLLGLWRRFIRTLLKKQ

Biological target: Fab1
Experiment: KinExA, solution phase: cyno TSLP titrated into fixed Fab1 (1000 pM filled diamonds, 40 pM open squares); free Fab1 captured on hu TSLP-coated beads

- binding: binds
Substance: cyno TSLP (from UniProt A0A7N9CAT7 29-159) (ligand)
